In brackets after ≈: the same amount, converted by molar mass. Further values from the same series stand in other lists.
Test system: Escherichia coli
Test: minimum inhibitory concentration (MIC)
Method: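 Broth microdilution MIC (Sensititre BOPO7F bovine plate, CLSI methods) of 19 antimicrobials against field isolates of P. multocida, M. haemolytica, H. somni (deep nasopharyngeal swabs) and E. coli, Enterococcus spp. (rectal swabs) from weaned dairy heifers. Incubation 16-24 h at 35 C. MIC is the lowest concentration preventing visible growth. Values with <= or > lie at the tested range limits. Trimethoprim-sulfamethoxazole is given as the trimethoprim component of a 1:19 mixture.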

CN1C[C@@H]2C[C@H]1CN2c1cc2c(cc1F)c(=O)c(C(=O)O)cn2C1CC1 [Danofloxacin]
Details	minimum inhibitory concentration [µg/mL]
isolate (source animal id): 221	≤ 0.12
isolate (source animal id): 222	≤ 0.12
isolate (source animal id): 223	0.5 (≈ 1.4 µM)
isolate (source animal id): 224	≤ 0.12
isolate (source animal id): 225	≤ 0.12
isolate (source animal id): 226	> 1
isolate (source animal id): 227	> 1
isolate (source animal id): 228	≤ 0.12
isolate (source animal id): 229	> 1
isolate (source animal id): 230	0.5 (≈ 1.4 µM)
isolate (source animal id): 231	0.5 (≈ 1.4 µM)
isolate (source animal id): 232	0.5 (≈ 1.4 µM)
isolate (source animal id): 233	≤ 0.12
isolate (source animal id): 234	≤ 0.12
isolate (source animal id): 235	0.5 (≈ 1.4 µM)
isolate (source animal id): 236	≤ 0.12
isolate (source animal id): 237	≤ 0.12
isolate (source animal id): 238	≤ 0.12
isolate (source animal id): 239	≤ 0.12
isolate (source animal id): 240	≤ 0.12
isolate (source animal id): 241	≤ 0.12
isolate (source animal id): 242	≤ 0.12
isolate (source animal id): 243	≤ 0.12
isolate (source animal id): 244	≤ 0.12
isolate (source animal id): 245	≤ 0.12
isolate (source animal id): 246	> 1
isolate (source animal id): 247	≤ 0.12
isolate (source animal id): 248	≤ 0.12
isolate (source animal id): 249	≤ 0.12
isolate (source animal id): 250	≤ 0.12
isolate (source animal id): 251	≤ 0.12
isolate (source animal id): 252	≤ 0.12
isolate (source animal id): 253	≤ 0.12
isolate (source animal id): 254	≤ 0.12
isolate (source animal id): 255	≤ 0.12
isolate (source animal id): 256	≤ 0.12
isolate (source animal id): 257	≤ 0.12
isolate (source animal id): 258	≤ 0.12
isolate (source animal id): 259	> 1
isolate (source animal id): 260	≤ 0.12
isolate (source animal id): 261	≤ 0.12
isolate (source animal id): 262	1 (≈ 2.8 µM)
isolate (source animal id): 263	≤ 0.12
isolate (source animal id): 264	≤ 0.12
isolate (source animal id): 265	≤ 0.12
isolate (source animal id): 266	≤ 0.12
isolate (source animal id): 267	≤ 0.12
isolate (source animal id): 268	≤ 0.12
isolate (source animal id): 269	≤ 0.12
isolate (source animal id): 270	≤ 0.12
isolate (source animal id): 271	≤ 0.12
isolate (source animal id): 272	≤ 0.12
isolate (source animal id): 273	≤ 0.12
isolate (source animal id): 274	> 1
isolate (source animal id): 275	0.25 (≈ 0.7 µM)
isolate (source animal id): 276	≤ 0.12
isolate (source animal id): 277	≤ 0.12
isolate (source animal id): 278	≤ 0.12
isolate (source animal id): 279	≤ 0.12
isolate (source animal id): 280	≤ 0.12
isolate (source animal id): 281	0.25 (≈ 0.7 µM)
isolate (source animal id): 282	≤ 0.12
isolate (source animal id): 283	≤ 0.12
isolate (source animal id): 284	≤ 0.12
isolate (source animal id): 285	≤ 0.12
isolate (source animal id): 286	≤ 0.12
isolate (source animal id): 287	≤ 0.12
isolate (source animal id): 288	≤ 0.12
isolate (source animal id): 289	≤ 0.12
isolate (source animal id): 290	≤ 0.12
isolate (source animal id): 291	≤ 0.12
isolate (source animal id): 292	≤ 0.12
isolate (source animal id): 293	≤ 0.12
isolate (source animal id): 294	≤ 0.12
isolate (source animal id): 295	0.25 (≈ 0.7 µM)
isolate (source animal id): 296	≤ 0.12
isolate (source animal id): 297	≤ 0.12
isolate (source animal id): 298	≤ 0.12
isolate (source animal id): 299	≤ 0.12
isolate (source animal id): 300	≤ 0.12
isolate (source animal id): 301	≤ 0.12
isolate (source animal id): 302	≤ 0.12
isolate (source animal id): 303	≤ 0.12
isolate (source animal id): 304	≤ 0.12
isolate (source animal id): 305	≤ 0.12
isolate (source animal id): 306	≤ 0.12
isolate (source animal id): 307	≤ 0.12
isolate (source animal id): 308	≤ 0.12
isolate (source animal id): 309	≤ 0.12
isolate (source animal id): 310	≤ 0.12
isolate (source animal id): 311	≤ 0.12
isolate (source animal id): 312	≤ 0.12
isolate (source animal id): 313	≤ 0.12
isolate (source animal id): 314	≤ 0.12
isolate (source animal id): 315	0.25 (≈ 0.7 µM)
isolate (source animal id): 316	≤ 0.12
isolate (source animal id): 317	0.5 (≈ 1.4 µM)
isolate (source animal id): 318	≤ 0.12
isolate (source animal id): 319	≤ 0.12
isolate (source animal id): 320	≤ 0.12
isolate (source animal id): 321	≤ 0.12
isolate (source animal id): 322	≤ 0.12
isolate (source animal id): 323	≤ 0.12
isolate (source animal id): 324	≤ 0.12
isolate (source animal id): 325	≤ 0.12
isolate (source animal id): 326	≤ 0.12
isolate (source animal id): 327	≤ 0.12
isolate (source animal id): 328	≤ 0.12
isolate (source animal id): 329	≤ 0.12
isolate (source animal id): 330	≤ 0.12
isolate (source animal id): 331	1 (≈ 2.8 µM)
isolate (source animal id): 332	≤ 0.12
isolate (source animal id): 333	≤ 0.12
isolate (source animal id): 334	≤ 0.12
isolate (source animal id): 335	≤ 0.12
isolate (source animal id): 336	≤ 0.12
isolate (source animal id): 337	1 (≈ 2.8 µM)
isolate (source animal id): 338	0.25 (≈ 0.7 µM)
isolate (source animal id): 339	≤ 0.12
isolate (source animal id): 340	≤ 0.12
isolate (source animal id): 341	≤ 0.12
